Measurements as given in the supplement of paper PMC7024190.
Structures can show the parent of a compound that is named as a salt. The list shows a part of the results. This data set is noisy: repeats of one test often differ as much as different tests do.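 Human embryonic kidney cells were transiently transfected with a plasmid bearing a Renilla luciferase gene under the HSV-TK promoter. This first-round screen tests roughly ten thousand compounds for ones that increase reporter output.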

System: HEK 293FT
Assay: log relative Renilla luciferase luminescence (reporter expression vs reference, reference not stated) (log (base not stated)); higher = higher recombinant reporter expression
Details: 10 µM; time after transfection 48 h

| SMILES | log |
| --- | --- |
| Cc1cccn2c(=O)c(-c3nnn[nH]3)cnc12 [Pemirolast potassium] | -0.112 |
| Nc1nc(NC2CC2)c2ncn([C@H]3C=C[C@@H](CO)C3)c2n1 [Abacavir] | -0.338 |
| N[C@@H](Cc1c[nH]c2ccc(O)cc12)C(=O)O [Oxitriptan] | 0.071 |
| OC(C#CCN1CCCCC1)(c1ccccc1)c1ccccc1 [Diferidin] | -0.0169 |
| CCC[C@H](N[C@@H](C)C(=O)N1[C@H](C(=O)O)C[C@@H]2CCCC[C@@H]21)C(=O)O [Perindopril tert-Butylamine salt] | -0.274 |
| C[C@]12C=CC(=O)C=C1CC[C@@H]1[C@@H]2[C@@H](O)C[C@@]2(C)[C@H]1CC[C@]2(O)C(=O)COC(=O)CCC(=O)O [Prednisolone hemisuccinate] | -0.328 |
